Results taken from article PMC9668932.
Substitutions are numbered along the chain they refer to. Names and notes keep the numbering of the source. No constants are given. Whether binding was seen depends on the method and setting. For some of these results: In cells and extracts the contact can be indirect. Some results given as binding are weak or reduced against the parent protein; the word gives no strength. Where a sequence is shown, tags or fusion partners need not be part of it.

Chains of the proteins cited; added tags and fusions are not shown. Residues count along the entry.
UniProt P08238: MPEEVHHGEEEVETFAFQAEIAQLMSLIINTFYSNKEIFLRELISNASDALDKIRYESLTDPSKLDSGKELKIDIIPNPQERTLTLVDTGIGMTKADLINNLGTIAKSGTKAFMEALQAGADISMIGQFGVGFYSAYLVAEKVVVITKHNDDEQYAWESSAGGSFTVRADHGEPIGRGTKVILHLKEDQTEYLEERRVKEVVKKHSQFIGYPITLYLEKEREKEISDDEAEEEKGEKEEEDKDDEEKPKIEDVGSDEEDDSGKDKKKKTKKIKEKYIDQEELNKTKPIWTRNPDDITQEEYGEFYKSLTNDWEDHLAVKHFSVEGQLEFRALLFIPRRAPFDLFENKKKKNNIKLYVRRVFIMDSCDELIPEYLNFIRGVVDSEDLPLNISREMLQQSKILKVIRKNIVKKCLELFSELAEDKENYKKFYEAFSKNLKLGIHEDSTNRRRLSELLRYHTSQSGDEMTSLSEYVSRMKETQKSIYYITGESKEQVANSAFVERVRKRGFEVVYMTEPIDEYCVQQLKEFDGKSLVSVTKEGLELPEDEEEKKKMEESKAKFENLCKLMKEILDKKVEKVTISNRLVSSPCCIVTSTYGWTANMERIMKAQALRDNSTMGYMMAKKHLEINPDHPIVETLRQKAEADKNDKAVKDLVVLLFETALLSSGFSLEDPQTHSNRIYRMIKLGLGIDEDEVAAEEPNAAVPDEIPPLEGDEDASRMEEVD
UniProt P35869, residues 1-437: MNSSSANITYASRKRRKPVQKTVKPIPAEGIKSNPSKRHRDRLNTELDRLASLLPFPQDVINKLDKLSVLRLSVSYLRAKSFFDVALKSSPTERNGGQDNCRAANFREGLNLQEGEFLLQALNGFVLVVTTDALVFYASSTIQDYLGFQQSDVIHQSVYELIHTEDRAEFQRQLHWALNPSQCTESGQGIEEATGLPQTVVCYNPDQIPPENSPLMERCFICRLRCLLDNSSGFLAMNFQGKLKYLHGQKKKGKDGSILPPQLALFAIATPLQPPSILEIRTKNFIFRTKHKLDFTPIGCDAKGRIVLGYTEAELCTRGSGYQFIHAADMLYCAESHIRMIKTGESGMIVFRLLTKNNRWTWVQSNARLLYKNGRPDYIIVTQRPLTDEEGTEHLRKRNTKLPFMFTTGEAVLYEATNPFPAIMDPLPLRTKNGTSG

B1: HBV X-associated protein 2 / aryl-hydrocarbon receptor-interacting protein, full length, untagged (protein, UniProt O00170 1-330)
chain: MADIIARLREDGIQKRVIQEGRGELPDFQDGTKATFHYRTLHSDDEGTVLDDSRARGKPMELIIGKKFKLPVWETIVCTMREGEIAQFLCDIKHVVLYPLVAKSLRNIAVGKDPLEGQRHCCGVAQMREHSSLGHADLDALQQNPQPLIFHMEMLKVESPGTYQQDPWAMTDEEKAKAVPLIHQEGNRLYREGHVKEAAAKYYDAIACLKNLQMKEQPGSPEWIQLDQQITPLLLNYCQCKLVVEEYYEVLDHCSSILNKYDDNVKAYFKRGKAHAAVWNAQEAQADFAKVLELDPALAPVVSRELRALEARIRQKDEEDKARFRGIFSH
B2: Myc-tag-XAP2_(1-330) (protein, UniProt O00170 1-330)
chain: B1 chain
B3: Myc-tag-XAP2_(1-330) Y248A (protein, UniProt O00170 1-330)
chain: B1 chain with Y248A
B4: Myc-tag-XAP2_(1-330) W279A (protein, UniProt O00170 1-330)
chain: B1 chain with W279A
B5: Myc-tag-XAP2_(1-330) D317A (protein, UniProt O00170 1-330)
chain: B1 chain with D317A
B6: Myc-tag-XAP2_(1-330) D320A (protein, UniProt O00170 1-330)
chain: B1 chain with D320A
B7: Myc-tag-XAP2_(1-330) F324A (protein, UniProt O00170 1-330)
chain: B1 chain with F324A
B8: Myc-tag-XAP2_(1-330) I327A (protein, UniProt O00170 1-330)
chain: B1 chain with I327A
B9: Myc-tag-XAP2_(1-330) F328A (protein, UniProt O00170 1-330)
chain: B1 chain with F328A
B10: Myc-tag-XAP2_(1-330) S329A (protein, UniProt O00170 1-330)
chain: B1 chain with S329A
B11: prostaglandin E synthase 3, full length, untagged (protein, UniProt Q15185 1-160)
chain: MQPASAKWYDRRDYVFIEFCVEDSKDVNVNFEKSKLTFSCLGGSDNFKHLNEIDLFHCIDPNDSKHKRTDRSILCCLRKGESGQSWPRLTKERAKLNWLSVDFNNWKDWEDDSDEDMSNFDRFSEMMNNMGGDEDVDLPEVDGADDDSQDSDDEKMPDLE

Tests used:
[1] = molecular target: heat shock protein HSP 90-beta, full length, His6-tagged (human) (UniProt P08238); assay: cryo-EM structure; ternary Hsp90-XAP2-AHR complex, co-expressed in Sf9 and co-purified, with indirubin at 5x molar excess; 20 mM Bis-Tris-HCl pH 7.0, 50 mM NaCl, 10 mM KCl, 10 mM MgCl2, 20 mM Na2MoO4, 2 mM BME; global map 2.85 Å, focused map 4.07 Å; both purified
[2] = molecular target: human aryl hydrocarbon receptor, residues 1-437 (human) (UniProt P35869); assay: as above
[3] = molecular target: Twin Strep-tag-MBP-TEV site-AHR_(1-437) (human) (UniProt P35869); assay: co-IP; HEK293F co-transfected with Twin Strep-MBP-AHR(1-437), His10-FLAG-Hsp90 and Myc-XAP2; cleared lysate on anti-MBP magnetic beads, 1 h on ice; 20 mM Bis-Tris-HCl pH 7.0, 10 mM KCl, 10 mM MgCl2, 20 mM Na2MoO4, 2 mM BME; Western blot with anti-tag antibodies
[4] = molecular target: His10-tag-FLAG-tag-TEV site-Hsp90_(1-724) (human) (UniProt P08238); assay: as above
[5] = molecular target: human aryl hydrocarbon receptor, residues 1-437 (human) (UniProt P35869); assay: co-purification; four proteins co-expressed in Sf9; HisTrap (His6-Hsp90), then Strep-Tactin (Twin Strep-MBP-AHR), TEV, anion exchange that separates complexes with and without p23, SEC; 20 mM Na2MoO4 in the buffers

Binder | binding [4] | also measured
B1 | – | binding [1]: binds; binding [2]: binds
B2 | binds | binding [3]: binds
B3 | binds | –
B4 | binds | –
B5 | binds | –
B6 | binds | –
B7 | binds | –
B8 | binds | –
B9 | binds | –
B10 | binds | –
B11 | – | binding [5]: binds
